{"source": "patent US20230183345A1", "binders": {"B1": {"name": "B3/29F6 (antibody, V domains shown)", "VH": "DVQLQESGPGLVKPSQSLSLTCTVTGYSITSDYAWIWIRQFPGNKVEWMGYITSSGSTSYNPSLKSRISFTRDTSKNQFFLQLTSVTTEDTATYYCARLDFGNYGGAMDYWGQGTSVTVSS", "VL": "DIVMTQSHKFMSTSIGDRVSITCKASQHVSTAVAWYQQKPGQSPKLLIYSASYRYTGVPDRFTGSRSGTDFTFTISSVQAEDLAVYYCQQHYITPYTFGGGTKLEIK"}}, "target": "monkey TIGIT (monkey)", "assay": "hybridoma screening, ELISA and FACS", "note": "These are yes or no findings as the source states them, for the method shown. A result given as binding can be weak or reduced; the word gives no strength.", "data": [{"binder": "B1", "values": [{"measurement": "binding", "result": "binds"}]}]}
